## Library screen at single concentrations

By UniProt entry, the sequences of proteins in these tests, tags left out.
UniProt P9WPC5, whole entry: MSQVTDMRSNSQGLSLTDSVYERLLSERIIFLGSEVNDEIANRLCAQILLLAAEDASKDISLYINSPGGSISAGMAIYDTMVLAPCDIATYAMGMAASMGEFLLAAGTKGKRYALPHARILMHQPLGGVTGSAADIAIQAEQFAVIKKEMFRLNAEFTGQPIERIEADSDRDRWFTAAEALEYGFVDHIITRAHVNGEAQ
UniProt P9WPC3, whole entry partner: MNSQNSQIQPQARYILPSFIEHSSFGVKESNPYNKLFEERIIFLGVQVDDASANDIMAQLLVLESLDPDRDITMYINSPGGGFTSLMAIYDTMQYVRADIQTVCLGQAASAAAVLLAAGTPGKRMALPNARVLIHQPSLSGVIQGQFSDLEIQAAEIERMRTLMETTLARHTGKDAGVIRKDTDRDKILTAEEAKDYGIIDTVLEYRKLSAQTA
UniProt P9WFT3, whole entry: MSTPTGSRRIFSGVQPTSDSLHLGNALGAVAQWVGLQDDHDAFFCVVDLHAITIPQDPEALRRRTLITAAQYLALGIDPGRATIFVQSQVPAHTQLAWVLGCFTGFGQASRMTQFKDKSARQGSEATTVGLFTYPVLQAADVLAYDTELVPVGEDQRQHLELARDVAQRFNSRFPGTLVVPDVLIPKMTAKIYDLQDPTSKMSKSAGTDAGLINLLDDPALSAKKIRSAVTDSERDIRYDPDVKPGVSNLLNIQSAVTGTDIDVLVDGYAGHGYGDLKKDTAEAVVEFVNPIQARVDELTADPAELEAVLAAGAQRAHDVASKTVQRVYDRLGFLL

A: 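ClpP1P2, Mycobacterium tuberculosis (UniProt P9WPC5 and UniProt P9WPC3). Protease assay of ClpP1P2, read by the AMC dye that it sets free. Compounds at 50 µM. Higher reads as stronger inhibition, judged from the few compounds that gave an IC50. Most other retested compounds had strongly negative values. Of about 69,000 compounds tested this way, about 10 (0.015%) reached 50% or more in at least one test.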
B: 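Enzyme assay of tryptophanyl-tRNA synthetase; the read-out is not stated. Target: Tryptophan-tRNA ligase, Mycobacterium tuberculosis (UniProt P9WFT3). Compounds at 10 µM. Higher most likely means stronger inhibition; the record gives no direction and few retests gave an IC50. Of about 65,000 compounds tested this way, about 64 (0.098%) reached 50% or more in at least one test.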

Each number is a percent effect as filed.
The record does not define 0% and 100%; most values in the screen are far below 50% and negative numbers occur (in some assays of this library far below -100).
The compounds are a random part of those screened.
A dash means the value is not listed here; it may have been measured.

SMILES,A,B
Cc1cc2nc(C(C)C)cc(N(C)CC3CCCN(CCO)C3)n2n1 (stereo not given),-8.428%,6.912%
Cc1cccc(CNCC2COC3(CCCCC3)O2)c1C (stereo not given),20.29%,-9.091%
Cn1cccc1C(=O)N1C[C@H]2CN(Cc3cccc(F)c3)C[C@H]2C1,-13.25%,-3.779%
Cc1ccc(N2CCCC(N(C)Cc3ccccn3)C2)nn1 (stereo not given),-8.196%,-0.7807%
O=C(NCCOc1ccc(C(F)(F)F)cn1)c1ccoc1,-1.684%,-4.262%
Cc1ccc(N2CC[C@@H]3[C@@H]2CCN3C(=O)Cc2cccs2)nn1,-5.538%,-
COC[C@H]1CCC[C@H]1Nc1ncnc2c1CCNCC2,-5.478%,2.016%
NC(=O)NCCC(=O)N1CCC(c2cc(-c3ccccc3Cl)n[nH]2)CC1,-8.024%,-0.6299%
CCc1c(C)nc(C)nc1N1C[C@@H](CN(CC)CCO)[C@@H](CO)C1,-3.168%,-2.991%
O=C(Cc1ccc2c(c1)CCC2)N1CCCC1Cn1cccn1 (stereo not given),-0.985%,-1.472%
COc1c(C2CCCN2C(=O)c2ccoc2C)c(C)nn1C (stereo not given),-12.1%,-4.933%
CC(O)c1cccc(N2CCC3(CCC(=O)N(CC(N)=O)C3)CC2)n1 (stereo not given),-9.162%,0.315%
O=c1[nH]c(CN2CCOC(Cn3cccn3)C2)nc2ccccc12 (stereo not given),-1.006%,-0.4259%
CC1COc2ccccc2N1C(=O)c1ccc(=O)n(C)c1 (stereo not given),-7.988%,15.48%
O=C(c1ccc2c(c1)CCC2)N1CC[C@H](O)[C@]2(CCCO2)C1,-10.76%,-
CNC(=O)c1ccccc1NCc1ncnn1C,-4.836%,6.941%
COc1ccc(S(=O)(=O)NCCC(O)c2cc(C)oc2C)c(C)c1 (stereo not given),-5.018%,-5.395%
O=C(c1cc(-n2cnnn2)ccc1Cl)N1CCN(c2ccccc2)CC1,-3.642%,4.068%
Cc1ccc(C(N)=O)c(N2Cc3cnc(C(C)(C)C)nc3C2)n1,-1.328%,3.849%
O=C(c1cnccn1)N1CCCC(Cc2ccccn2)C1 (stereo not given),-9.532%,-2.488%
CCOc1ccccc1-c1noc(CN2CCOC(CN(C)C)C2)n1 (stereo not given),-9.027%,-0.08136%
Cc1ccc(-c2cc(CNCCn3cc(C)cn3)on2)cc1,-10.48%,3.722%
CCN(CC1CN(Cc2ncc[nH]2)CCO1)c1cccnn1 (stereo not given),3.83%,1.243%
Cc1ncsc1CCCNC(=O)C1CC2(CCNCC2)CN1C (stereo not given),0.3387%,-1.871%
CCc1ccc(CN2CCNC(C(=O)N3CCN(C)CC3)C2)o1 (stereo not given),-6.487%,-3.791%
CC(OCC1CC1)C(=O)N1CCCN(Cc2cscn2)CC1 (stereo not given),-27.32%,-7.176%
Cc1noc(C)c1CN1C[C@H](OCC2CC2)[C@H]2COC[C@H]21,-0.4519%,-6.853%
O=c1cc(Cn2ccnc2)nc2n1CCCN(Cc1ccc(F)cc1)C2,-2.23%,2.49%
O=C(NCCNc1ncccn1)c1ccc(Br)cc1,-33.36%,-4.655%
Cc1ccc(CCC(=O)N2CCOCC2c2ncon2)c(C)c1 (stereo not given),17.97%,2.066%
O=C(CCCc1ccccn1)N1CCSC2(CCCCC2)C1,-7.219%,0.2564%
Cc1nc(CO[C@H]2CN(C(=O)c3cccn3C)[C@@H]3COC[C@H]23)cs1,7.541%,-4.007%
O=C(c1ncoc1C1CC1)N1CCN(CCOc2ccccc2)CC1,-9.487%,26.47%
CCc1noc(CNc2ccc(CC(=O)N3CCSCC3)cc2)n1,17.09%,4.499%
COCC(=O)N1CC2(CCN(c3ccccc3)C2)C1,-2.217%,-5.672%
Cc1oc(-c2ccsc2)nc1CN1CCCC(c2ccnn2C)C1 (stereo not given),-8%,-3.47%
COc1ccc(-c2noc(Cn3cc(C)cn3)n2)c(OC)c1OC,2.042%,-3.095%
CC(Cn1cccn1)NCc1nc(-c2cccc(Cl)c2)no1 (stereo not given),-10.24%,0.8772%
CN(CCN1CCCCCC1)C(=O)c1c(O)cccc1O,-2.566%,1.874%
CN1CCC(NC(=O)Nc2cnn(-c3ccccc3Cl)c2)CC1,-6.059%,3.374%
COc1ccc(C[C@H]2CN(C3CCOCC3)CC[C@H]2OCC2CC2)cc1,-0.3965%,-2.021%
CC1CCCN(Cc2csc(-c3ncccn3)n2)CC1 (stereo not given),-0.3396%,-5.734%
Cc1nc2c(N(C)Cc3ccnn3C)nc(N)nc2n1C,-17.41%,1.577%
CCC(C#N)NC(=O)c1cc(Br)c2c(c1)OCCO2 (stereo not given),-11.02%,-3.397%
O=C(NC1CC(=O)N(C2Cc3ccccc3C2)C1)c1csnn1 (stereo not given),-6.98%,-2.801%
CC(C)c1cc(C(=O)NCCN2CCOCC2)nc(N2CCCC2)n1,-8.639%,-1.295%
Cc1ccc(C(=O)Nc2cc(C(C)C)n[nH]2)cn1,-5.767%,-1.998%
N#Cc1ccc(CN(CC(N)=O)C2CCCC2)cc1,6.854%,-7.385%
Cn1cccc1C(=O)N1C[C@H](OCC2CCOCC2)[C@H]2COC[C@H]21,-4.607%,-6.46%
Cc1cc(S(=O)(=O)N2CCCc3cc(F)cc(F)c32)sc1C(=O)O,-11.46%,-4.085%
CCOC(C)c1noc(CN2CCN(Cc3ccno3)CC2)n1 (stereo not given),4.109%,2%
CSc1ccc(-c2noc(CN(CC(C)C)CC(C)C)n2)cc1,-20.04%,-1.861%
N#Cc1ccccc1N1CCC(Nc2nccnc2C#N)CC1,-3.708%,2.75%
c1ccc(OCc2ccncc2)c(CNC2CCc3ncnn3C2)c1 (stereo not given),26.39%,-3.044%
CN(C)CC1(O)CCN(S(=O)(=O)c2ccc(F)c(F)c2)C1 (stereo not given),0.1253%,0.4181%
Cc1cccc(CN2C[C@@H](NC(=O)C3CC3)[C@H]3OCCC[C@H]32)n1,15.18%,6.773%
Cc1cnn(CC2CCCCN2CCn2cncn2)c1 (stereo not given),6.243%,-3.97%
Cc1ccc(CCNc2nccc(-c3cc(C(=O)O)ccn3)n2)o1,-4.202%,-1.308%
CC[C@H]1CN(C(=O)C(C)(C)C)CC[C@H]1CC(=O)O,-6.206%,0.6777%
O=C(c1cnc2ccccc2c1)N1CCC2(CCN2c2ncccn2)C1 (stereo not given),17.61%,3.592%
Cn1cc(C2CCCN2C(=O)COC2CCCCC2)cn1 (stereo not given),-9.145%,3.127%
O=S(=O)(c1cccnc1)N1CCCCC1CCN1CCOCC1 (stereo not given),-5.811%,0.784%
COC(=O)C(O)C1CCN(Cc2cccc(-n3cccn3)c2)CC1 (stereo not given),8.58%,-1.795%
CCN(CC)CCN(C)c1nc(-c2ccc(Cl)cc2)nc2c1CNC2,-8.332%,-3.612%
COCc1nc(CNc2cccc(-c3nc(C)c(C)o3)c2)cs1,-3.915%,1.111%
COCCN1CCCc2sc(C(=O)NCC3CCCO3)nc21 (stereo not given),-5.759%,1.862%
COc1ccc(CNc2nc(C3CC3)nc3c(C)nn(C)c23)cc1,3.603%,2.007%
COCCCN1CCc2cncnc2C1,-21.11%,7.002%
CS(=O)(=O)N1CCC2(CC1)CC(Oc1ccccn1)CO2 (stereo not given),-9.914%,-3.466%
COC[C@]12COC[C@H]1CN(Cc1cc(OC)cc(OC)c1)C2,-0.7831%,3.4%
CS(=O)(=O)N1CCOC2(CCCN(c3cnccn3)C2)C1 (stereo not given),-21.16%,-3.688%
CNC(=O)C1CCC2(CCN(c3nncs3)CC2)CO1 (stereo not given),6.432%,3.246%
COc1ncccc1CNC(=O)C1CC(=O)N(C)C1 (stereo not given),-6.686%,1.791%

7 of the entries, repeated:

- COCCN1CCCc2sc(C(=O)NCC3CCCO3)nc21 (stereo not given) : A: -5.759%; B: 1.862%
- O=C(c1cnccn1)N1CCCC(Cc2ccccn2)C1 (stereo not given) : A: -9.532%; B: -2.488%
- Cn1cccc1C(=O)N1C[C@H](OCC2CCOCC2)[C@H]2COC[C@H]21 : A: -4.607%; B: -6.46%
- CC1CCCN(Cc2csc(-c3ncccn3)n2)CC1 (stereo not given) : A: -0.3396%; B: -5.734%
- COc1ccc(-c2noc(Cn3cc(C)cn3)n2)c(OC)c1OC : A: 2.042%; B: -3.095%
- O=C(Cc1ccc2c(c1)CCC2)N1CCCC1Cn1cccn1 (stereo not given) : A: -0.985%; B: -1.472%
- O=C(c1ncoc1C1CC1)N1CCN(CCOc2ccccc2)CC1 : A: -9.487%; B: 26.47%

From ChEMBL document CHEMBL3988442, “University of Dundee, Small-Polar-MMV Screening Library” (2021).